In patent US20190100600A1:
These are yes or no findings as the source states them, for the method shown. Some entries that bind do so weakly or less than the wild type. Tags and fused reporters may be left off the sequences shown.

The chains behind the UniProt entries cited, without tags or fusion partners. Residues count along the entry.
UniProt O75581, residues 20-1370: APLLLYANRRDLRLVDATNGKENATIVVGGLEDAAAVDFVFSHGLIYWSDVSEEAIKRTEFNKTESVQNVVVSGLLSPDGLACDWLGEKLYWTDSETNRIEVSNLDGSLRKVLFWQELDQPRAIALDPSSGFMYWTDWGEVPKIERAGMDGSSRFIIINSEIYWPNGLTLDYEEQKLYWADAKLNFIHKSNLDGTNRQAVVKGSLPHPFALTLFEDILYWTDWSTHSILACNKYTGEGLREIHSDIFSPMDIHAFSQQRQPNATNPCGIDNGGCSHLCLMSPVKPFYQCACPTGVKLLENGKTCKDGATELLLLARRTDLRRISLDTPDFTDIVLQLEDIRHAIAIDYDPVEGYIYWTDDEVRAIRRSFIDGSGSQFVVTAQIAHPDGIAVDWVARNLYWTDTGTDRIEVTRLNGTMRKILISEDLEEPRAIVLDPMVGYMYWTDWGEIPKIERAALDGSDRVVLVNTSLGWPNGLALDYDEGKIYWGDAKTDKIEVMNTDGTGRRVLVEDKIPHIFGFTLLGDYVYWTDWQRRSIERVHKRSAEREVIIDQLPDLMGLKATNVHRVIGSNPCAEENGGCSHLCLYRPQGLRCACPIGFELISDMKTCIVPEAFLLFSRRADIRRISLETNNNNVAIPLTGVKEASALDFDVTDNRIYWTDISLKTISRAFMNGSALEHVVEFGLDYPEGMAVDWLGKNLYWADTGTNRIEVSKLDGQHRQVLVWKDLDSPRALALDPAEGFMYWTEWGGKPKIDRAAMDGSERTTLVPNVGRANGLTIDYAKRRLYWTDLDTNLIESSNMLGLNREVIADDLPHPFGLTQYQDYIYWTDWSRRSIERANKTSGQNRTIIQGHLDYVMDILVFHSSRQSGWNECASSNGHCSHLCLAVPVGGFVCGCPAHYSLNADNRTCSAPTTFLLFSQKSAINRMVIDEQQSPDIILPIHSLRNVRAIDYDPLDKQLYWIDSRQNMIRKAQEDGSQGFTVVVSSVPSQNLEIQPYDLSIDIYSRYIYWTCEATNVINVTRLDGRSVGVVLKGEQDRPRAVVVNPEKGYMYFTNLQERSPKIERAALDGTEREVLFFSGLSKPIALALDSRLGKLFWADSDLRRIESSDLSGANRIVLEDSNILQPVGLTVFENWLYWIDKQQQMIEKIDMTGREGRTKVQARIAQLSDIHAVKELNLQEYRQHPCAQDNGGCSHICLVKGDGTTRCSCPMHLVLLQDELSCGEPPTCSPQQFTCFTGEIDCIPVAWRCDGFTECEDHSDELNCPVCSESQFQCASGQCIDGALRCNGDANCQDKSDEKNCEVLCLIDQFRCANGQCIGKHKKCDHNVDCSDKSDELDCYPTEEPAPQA
UniProt Q9ULT6, residues 56-219: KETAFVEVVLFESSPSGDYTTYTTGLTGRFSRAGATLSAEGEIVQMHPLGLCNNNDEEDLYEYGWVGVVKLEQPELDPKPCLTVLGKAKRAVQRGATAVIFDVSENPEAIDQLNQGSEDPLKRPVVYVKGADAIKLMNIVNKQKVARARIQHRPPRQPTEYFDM

Key:
RNF43-Fc [1] = target: T1, RNF43-Fc (UniProt Q68DV7); assay: ELISA: coated hRNF43-Fc, hLGR5-Fc preincubated with hRspo 4, bound hLGR5-Fc detected with anti-FLAG; ternary complex
T1 sequence (looked up): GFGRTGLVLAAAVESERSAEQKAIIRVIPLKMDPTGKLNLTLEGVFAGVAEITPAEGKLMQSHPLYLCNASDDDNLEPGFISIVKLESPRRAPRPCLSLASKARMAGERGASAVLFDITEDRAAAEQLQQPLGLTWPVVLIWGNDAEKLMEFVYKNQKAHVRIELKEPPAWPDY

RNF43-Fc [2] = target: T1, RNF43-Fc; assay: ELISA, RNF43-Fc coated, LGR5-Fc preincubated with R-spondin 1/2/3/4 or Norrin, detection with anti-FLAG mAb
RNF43-Fc [3] = target: T1, RNF43-Fc; assay: ELISA: coated hRNF43-Fc, hLGR5-Fc preincubated with hRspo 2, bound hLGR5-Fc detected with anti-FLAG; ternary complex
RNF43-Fc [4] = target: T1, RNF43-Fc; assay: ELISA: coated hRNF43-Fc, hLGR5-Fc preincubated with hRspo 1, bound hLGR5-Fc detected with anti-FLAG; ternary complex
RNF43-Fc [5] = target: T1, RNF43-Fc; assay: ELISA: coated hRNF43-Fc, hLGR5-Fc preincubated with hNorrin, bound hLGR5-Fc detected with anti-FLAG; ternary complex
LRP6-Fc = LRP6-Fc (UniProt O75581); assay: ELISA, LRP6-Fc coated, LGR5-Fc preincubated with R-spondin 1/2/3/4 or Norrin, detection with anti-FLAG mAb
ZNRF3-Fc = ZNRF3-Fc (UniProt Q9ULT6); assay: ELISA, ZNRF3-Fc coated, LGR5-Fc preincubated with R-spondin 1/2/3/4 or Norrin, detection with anti-FLAG mAb
RNF43-Fc [6] = target: T1, RNF43-Fc; assay: ELISA: coated hRNF43-Fc, hLGR5-Fc preincubated with hRspo 3, bound hLGR5-Fc detected with anti-FLAG; ternary complex

binding (RNF43-Fc [1]): binds
binding (RNF43-Fc [2]): binds
binding (RNF43-Fc [3]): binds
binding (RNF43-Fc [4]): binds
binding (RNF43-Fc [5]): binds
binding (LRP6-Fc): binds
binding (ZNRF3-Fc): binds
binding (RNF43-Fc [6]): binds
B1: purified recombinant LGR5 ectodomain-IgG-Fc fusion (Fc fusion, not shown: a dimerising Fc or GST)
chain: GSSPRSGVLLRGCPTHCHCEPDGRMLLRVDCSDLGLSELPSNLSVFTSYLDLSMNNISQLLPNPLPSLRFLEELRLAGNALTYIPKGAFTGLYSLKVLMLQNNQLRHVPTEALQNLRSLQSLRLDANHISYVPPSCFSGLHSLRHLWLDDNALTEIPVQAFRSLSALQAMTLALNKIHHIPDYAFGNLSSLVVLHLHNNRIHSLGKKCFDGLHSLETLDLNYNNLDEFPTAIRTLSNLKELGFHSNNIRSIPEKAFVGNPSLITIHFYDNPIQFVGRSAFQHLPELRTLTLNGASQITEFPDLTGTANLESLTLTGAQISSLPQTVCNQLPNLQVLDLSYNLLEDLPSFSVCQKLQKIDLRHNEIYEIKVDTFQQLLSLRSLNLAWNKIAIIHPNAFSTLPSLIKLDLSSNLLSSFPITGLHGLTHLKLTGNHALQSLISSENFPELKVIEMPYAYQCCAFGVCENAYKISNQWNKGDNSSMDDLHKKDAGMFQAQDERDLEDFLLDFEEDLKALHSVQCSPSPGPFKPCEHLLDGWLIR
